According to the supplement of paper PMC11732987, “Enantioselective OTUD7B fragment discovery through chemoproteomics screening and high-throughput optimisation” (Communications Chemistry, 2025):
Some of the results follow. The data scatter; read single values as rough.

The chains behind the UniProt entries cited, without tags or fusion partners. Where a name states a change or a piece, a line headed by the entry shows the natural chain unless it says otherwise. Residues count along the entry.
UniProt Q15477: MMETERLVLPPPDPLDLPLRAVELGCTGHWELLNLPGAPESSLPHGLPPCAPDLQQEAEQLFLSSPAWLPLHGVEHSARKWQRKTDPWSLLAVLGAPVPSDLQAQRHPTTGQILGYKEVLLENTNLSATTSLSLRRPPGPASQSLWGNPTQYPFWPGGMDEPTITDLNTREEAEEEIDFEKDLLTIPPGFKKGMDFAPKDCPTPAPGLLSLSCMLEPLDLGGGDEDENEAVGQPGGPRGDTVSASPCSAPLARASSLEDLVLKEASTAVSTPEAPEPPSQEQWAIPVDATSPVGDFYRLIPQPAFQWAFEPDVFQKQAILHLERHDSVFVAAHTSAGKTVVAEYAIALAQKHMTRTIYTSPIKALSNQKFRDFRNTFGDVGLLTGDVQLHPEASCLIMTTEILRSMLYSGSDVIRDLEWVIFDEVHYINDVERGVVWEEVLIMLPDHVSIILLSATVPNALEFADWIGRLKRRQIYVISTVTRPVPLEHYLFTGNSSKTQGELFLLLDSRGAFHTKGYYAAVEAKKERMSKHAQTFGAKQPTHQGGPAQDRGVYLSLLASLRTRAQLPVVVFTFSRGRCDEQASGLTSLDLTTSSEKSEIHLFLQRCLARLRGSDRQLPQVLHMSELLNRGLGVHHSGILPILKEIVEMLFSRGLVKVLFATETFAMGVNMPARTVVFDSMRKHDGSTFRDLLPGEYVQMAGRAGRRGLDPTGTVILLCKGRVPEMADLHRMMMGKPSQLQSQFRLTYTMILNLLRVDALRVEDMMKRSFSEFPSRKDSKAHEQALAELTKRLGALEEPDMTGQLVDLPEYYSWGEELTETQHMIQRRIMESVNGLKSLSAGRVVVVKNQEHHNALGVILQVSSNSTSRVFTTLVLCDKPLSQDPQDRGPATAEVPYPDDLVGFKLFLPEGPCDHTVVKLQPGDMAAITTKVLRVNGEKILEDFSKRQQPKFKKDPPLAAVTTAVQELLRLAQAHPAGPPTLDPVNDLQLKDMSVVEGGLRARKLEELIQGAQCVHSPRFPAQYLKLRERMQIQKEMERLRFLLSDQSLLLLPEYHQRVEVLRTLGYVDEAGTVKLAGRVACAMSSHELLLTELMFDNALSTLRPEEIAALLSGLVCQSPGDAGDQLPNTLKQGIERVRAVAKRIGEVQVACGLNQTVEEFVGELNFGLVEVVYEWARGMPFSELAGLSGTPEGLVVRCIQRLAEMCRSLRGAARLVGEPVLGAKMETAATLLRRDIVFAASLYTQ
UniProt Q9BWU0: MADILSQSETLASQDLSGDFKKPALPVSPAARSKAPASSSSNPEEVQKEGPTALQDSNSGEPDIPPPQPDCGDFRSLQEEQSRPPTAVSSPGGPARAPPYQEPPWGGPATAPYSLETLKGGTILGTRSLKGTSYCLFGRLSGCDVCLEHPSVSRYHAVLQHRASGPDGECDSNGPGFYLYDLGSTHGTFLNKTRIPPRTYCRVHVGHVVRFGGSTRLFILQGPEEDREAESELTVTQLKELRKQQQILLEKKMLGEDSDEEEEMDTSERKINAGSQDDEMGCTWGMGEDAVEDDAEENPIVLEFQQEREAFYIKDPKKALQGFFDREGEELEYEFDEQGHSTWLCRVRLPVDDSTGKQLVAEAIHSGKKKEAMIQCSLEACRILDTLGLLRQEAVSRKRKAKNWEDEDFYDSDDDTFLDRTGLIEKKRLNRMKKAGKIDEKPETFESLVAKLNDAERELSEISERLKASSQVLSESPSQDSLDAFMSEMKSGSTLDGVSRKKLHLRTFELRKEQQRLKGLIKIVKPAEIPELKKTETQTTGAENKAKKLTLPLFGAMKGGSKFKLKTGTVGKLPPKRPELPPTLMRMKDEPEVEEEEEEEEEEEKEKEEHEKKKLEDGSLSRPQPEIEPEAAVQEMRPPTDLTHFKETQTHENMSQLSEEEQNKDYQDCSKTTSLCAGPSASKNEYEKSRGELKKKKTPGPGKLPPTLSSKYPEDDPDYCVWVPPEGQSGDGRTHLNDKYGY
UniProt Q9Y289, 610-635: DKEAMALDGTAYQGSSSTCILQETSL
UniProt O60906: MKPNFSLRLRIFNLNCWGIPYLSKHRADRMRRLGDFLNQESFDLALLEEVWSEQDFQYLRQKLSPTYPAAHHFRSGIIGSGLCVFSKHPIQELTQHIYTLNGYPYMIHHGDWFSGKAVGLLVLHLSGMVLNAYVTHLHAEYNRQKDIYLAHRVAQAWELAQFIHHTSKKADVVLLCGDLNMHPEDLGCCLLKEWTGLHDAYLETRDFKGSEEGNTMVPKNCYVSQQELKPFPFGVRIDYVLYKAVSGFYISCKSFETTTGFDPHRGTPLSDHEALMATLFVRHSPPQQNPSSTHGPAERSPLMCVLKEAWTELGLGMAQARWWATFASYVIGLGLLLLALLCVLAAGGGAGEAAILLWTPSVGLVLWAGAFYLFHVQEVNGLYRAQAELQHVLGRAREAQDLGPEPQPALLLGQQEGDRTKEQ
UniProt Q92540: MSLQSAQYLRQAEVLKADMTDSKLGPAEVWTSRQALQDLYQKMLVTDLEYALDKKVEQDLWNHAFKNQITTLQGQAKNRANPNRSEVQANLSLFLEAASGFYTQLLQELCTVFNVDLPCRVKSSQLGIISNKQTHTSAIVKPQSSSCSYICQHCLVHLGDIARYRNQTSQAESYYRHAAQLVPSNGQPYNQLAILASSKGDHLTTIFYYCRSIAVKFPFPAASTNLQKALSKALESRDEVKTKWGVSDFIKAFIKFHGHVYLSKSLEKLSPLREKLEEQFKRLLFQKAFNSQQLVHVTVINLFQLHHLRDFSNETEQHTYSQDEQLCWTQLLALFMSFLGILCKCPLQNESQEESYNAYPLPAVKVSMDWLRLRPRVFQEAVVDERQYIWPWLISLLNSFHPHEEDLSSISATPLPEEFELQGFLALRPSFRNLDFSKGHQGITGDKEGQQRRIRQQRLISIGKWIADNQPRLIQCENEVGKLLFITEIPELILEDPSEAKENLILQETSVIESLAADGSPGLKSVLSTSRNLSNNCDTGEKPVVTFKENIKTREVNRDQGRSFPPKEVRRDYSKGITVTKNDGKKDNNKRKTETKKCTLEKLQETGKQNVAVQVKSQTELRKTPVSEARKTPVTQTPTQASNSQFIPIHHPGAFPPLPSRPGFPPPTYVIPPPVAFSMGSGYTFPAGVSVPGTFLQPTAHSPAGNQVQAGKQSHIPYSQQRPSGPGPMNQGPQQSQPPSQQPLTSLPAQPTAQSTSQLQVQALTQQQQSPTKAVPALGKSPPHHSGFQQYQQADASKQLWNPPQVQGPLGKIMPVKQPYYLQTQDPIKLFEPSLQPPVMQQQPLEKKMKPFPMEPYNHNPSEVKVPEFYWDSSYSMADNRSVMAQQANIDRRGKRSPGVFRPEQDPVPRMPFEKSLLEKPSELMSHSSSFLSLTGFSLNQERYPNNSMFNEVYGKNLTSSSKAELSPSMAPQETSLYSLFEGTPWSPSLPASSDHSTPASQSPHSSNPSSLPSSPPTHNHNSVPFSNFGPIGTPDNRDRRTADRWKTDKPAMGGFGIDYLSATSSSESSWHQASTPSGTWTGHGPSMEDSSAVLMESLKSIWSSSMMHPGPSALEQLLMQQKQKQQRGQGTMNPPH
UniProt Q9NRG4: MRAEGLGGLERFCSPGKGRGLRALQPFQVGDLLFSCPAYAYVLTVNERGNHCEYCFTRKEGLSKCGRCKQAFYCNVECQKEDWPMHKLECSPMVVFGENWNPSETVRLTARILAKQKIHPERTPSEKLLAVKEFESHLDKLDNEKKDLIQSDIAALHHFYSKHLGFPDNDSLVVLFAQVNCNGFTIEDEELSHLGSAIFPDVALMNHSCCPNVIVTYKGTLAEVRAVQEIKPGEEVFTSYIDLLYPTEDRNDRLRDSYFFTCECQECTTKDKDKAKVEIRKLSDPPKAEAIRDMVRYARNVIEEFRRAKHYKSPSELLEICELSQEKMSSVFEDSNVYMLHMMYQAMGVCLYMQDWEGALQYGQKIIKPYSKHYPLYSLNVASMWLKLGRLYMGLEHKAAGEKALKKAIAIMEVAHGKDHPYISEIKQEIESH
UniProt P00441, whole entry, looked up: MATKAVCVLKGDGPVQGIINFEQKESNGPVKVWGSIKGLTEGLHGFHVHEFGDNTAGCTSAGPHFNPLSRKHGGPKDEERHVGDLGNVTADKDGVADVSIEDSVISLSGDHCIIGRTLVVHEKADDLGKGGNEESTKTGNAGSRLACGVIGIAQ
UniProt Q9Y5X1: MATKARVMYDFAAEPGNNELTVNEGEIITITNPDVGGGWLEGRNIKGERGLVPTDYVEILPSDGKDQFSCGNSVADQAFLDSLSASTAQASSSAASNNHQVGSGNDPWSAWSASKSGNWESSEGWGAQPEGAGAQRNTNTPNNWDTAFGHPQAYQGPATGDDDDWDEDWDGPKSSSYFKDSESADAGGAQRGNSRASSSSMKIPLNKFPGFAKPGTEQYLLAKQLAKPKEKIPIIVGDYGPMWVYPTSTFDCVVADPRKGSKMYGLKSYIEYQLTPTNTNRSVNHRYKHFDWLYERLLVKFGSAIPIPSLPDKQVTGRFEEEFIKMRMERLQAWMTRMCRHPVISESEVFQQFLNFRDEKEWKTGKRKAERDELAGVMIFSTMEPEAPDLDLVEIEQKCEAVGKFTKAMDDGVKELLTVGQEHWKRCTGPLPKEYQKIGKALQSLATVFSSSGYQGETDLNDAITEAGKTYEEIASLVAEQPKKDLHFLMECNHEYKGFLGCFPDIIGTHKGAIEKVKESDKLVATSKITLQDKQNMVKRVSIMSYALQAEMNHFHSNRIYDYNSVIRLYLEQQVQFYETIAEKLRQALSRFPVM
UniProt Q8IX90, 276-295: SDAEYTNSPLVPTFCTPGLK
UniProt Q8IX90, whole entry, looked up: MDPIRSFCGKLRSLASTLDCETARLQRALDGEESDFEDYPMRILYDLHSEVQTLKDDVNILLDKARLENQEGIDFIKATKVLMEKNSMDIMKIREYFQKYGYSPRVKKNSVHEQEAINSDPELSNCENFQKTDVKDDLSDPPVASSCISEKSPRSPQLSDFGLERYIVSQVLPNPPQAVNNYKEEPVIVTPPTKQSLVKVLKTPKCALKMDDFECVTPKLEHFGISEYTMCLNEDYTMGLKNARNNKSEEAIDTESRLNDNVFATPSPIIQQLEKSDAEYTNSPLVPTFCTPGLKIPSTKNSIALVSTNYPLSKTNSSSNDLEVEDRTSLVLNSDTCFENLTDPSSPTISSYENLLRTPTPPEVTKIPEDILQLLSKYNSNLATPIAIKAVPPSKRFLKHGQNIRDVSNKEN
UniProt Q8ND04: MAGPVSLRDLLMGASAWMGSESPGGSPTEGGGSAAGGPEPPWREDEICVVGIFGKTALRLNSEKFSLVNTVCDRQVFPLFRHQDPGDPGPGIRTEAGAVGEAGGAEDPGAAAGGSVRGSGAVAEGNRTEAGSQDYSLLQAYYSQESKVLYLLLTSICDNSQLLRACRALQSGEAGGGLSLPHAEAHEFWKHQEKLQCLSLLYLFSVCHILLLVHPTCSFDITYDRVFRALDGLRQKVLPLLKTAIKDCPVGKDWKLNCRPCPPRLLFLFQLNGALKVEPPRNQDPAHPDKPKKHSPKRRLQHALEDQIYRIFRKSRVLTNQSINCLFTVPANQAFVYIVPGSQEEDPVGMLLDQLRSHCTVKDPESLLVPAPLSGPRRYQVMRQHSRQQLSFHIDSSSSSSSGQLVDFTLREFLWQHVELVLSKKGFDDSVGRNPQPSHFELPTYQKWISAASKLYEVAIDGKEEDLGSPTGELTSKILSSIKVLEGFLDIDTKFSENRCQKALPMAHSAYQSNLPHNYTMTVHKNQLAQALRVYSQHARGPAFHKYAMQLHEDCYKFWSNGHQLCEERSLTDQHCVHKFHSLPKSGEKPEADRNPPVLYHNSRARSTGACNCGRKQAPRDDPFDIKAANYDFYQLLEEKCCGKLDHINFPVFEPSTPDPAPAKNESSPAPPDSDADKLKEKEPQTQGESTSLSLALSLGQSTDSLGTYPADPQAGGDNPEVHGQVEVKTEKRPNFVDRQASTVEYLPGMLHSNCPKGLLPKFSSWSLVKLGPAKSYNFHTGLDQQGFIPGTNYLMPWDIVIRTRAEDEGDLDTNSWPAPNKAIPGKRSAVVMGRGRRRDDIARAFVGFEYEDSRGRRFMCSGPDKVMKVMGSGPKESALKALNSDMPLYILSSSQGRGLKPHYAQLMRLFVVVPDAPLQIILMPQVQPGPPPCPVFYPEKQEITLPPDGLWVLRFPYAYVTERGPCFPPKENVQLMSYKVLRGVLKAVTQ
UniProt O00161: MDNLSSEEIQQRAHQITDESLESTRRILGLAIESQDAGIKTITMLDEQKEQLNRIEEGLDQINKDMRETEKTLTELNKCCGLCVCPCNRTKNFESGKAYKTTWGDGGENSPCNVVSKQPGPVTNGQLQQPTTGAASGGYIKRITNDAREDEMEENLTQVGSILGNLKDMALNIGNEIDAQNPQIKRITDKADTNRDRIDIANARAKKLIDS
UniProt Q8N0X7, 389-414: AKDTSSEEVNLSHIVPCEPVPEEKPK

What follows are targets tested with ClCC(=O)N[C@@H]1CCCc2ccccc12 (assay: log2 mean competition ratio of IA-DTB cysteine labelling (DMSO/compound) (log2 ratio); higher = stronger cysteine engagement by compound). Details: 200 µM; treatment time: 4 h; cell line lysate: HEK293T.
Description: (§1)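 IA-DTB competitive cysteine chemoproteomics in HEK293T RIPA lysate. Lysates were treated with compound 29 or 30 at 50 or 200 µM for 4 h, then IA-DTB (500 µM, 1 h), trypsin-digested, NeutrAvidin-enriched and analysed by diaPASEF. Competition ratio = intensity DMSO / intensity compound (n=4 treated, n=64 DMSO); binding: mean log2 CR ≥ 1 and p ≤ 0.05 plus QC filters. Target is the cysteine site.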

Target	log2 mean competition ratio
SKIV2L C579 (UniProt Q15477)	0.123
SLC4A1AP C730 (UniProt Q9BWU0)	-0.0388
SLC5A6 C628 (UniProt Q9Y289)	0.1
SMPD2 C304 (UniProt O60906)	-0.0128
SMG7 C476 (UniProt Q92540)	-0.0487
SMYD2 C321 (UniProt Q9NRG4)	0.04
SOD1 C147 (UniProt P00441)	-0.154
SNX9 C427 (UniProt Q9Y5X1)	-0.343
SLC30A1 C469 (UniProt Q9Y6M5)	0.297
SMARCA5 C165 (UniProt O60264)	0.103

These targets were tested with ClCC(=O)N[C@H]1CCCc2ccccc12 in the same assay as above. Details: 50 µM; treatment time: 4 h; cell line lysate: HEK293T.
Description: as §1

Target	log2 mean competition ratio
SMG9 C380 (UniProt Q9H0W8)	-0.0499
SLC1A3 C375 (UniProt P43003)	0.0864
SMUG1 C131 (UniProt Q53HV7)	-0.317
SKA3 C290 (UniProt Q8IX90)	-0.0537
SMARCD2 C355 (UniProt Q92925)	0.102
SMARCAD1 C575 (UniProt Q9H4L7)	0.00813
SOS1 C167 (UniProt Q07889)	-0.341
SMARCA2 C91 (UniProt P51531)	0.00252
SMARCAD1 C741 (UniProt Q9H4L7)	-0.163
SMYD4 C380 (UniProt Q8IYR2)	-0.239
SLC2A4RG C322	-0.101
SLC1A1 C343	-0.114
SMG8 C861 (UniProt Q8ND04)	-0.393
SNAP23 C112 (UniProt O00161)	0.114
SKA3 C215 (UniProt Q8IX90)	-0.317
SMAD2 C380 (UniProt Q15796)	-0.139
SLC6A11 C80	-0.645
SNRNP200 C428 (UniProt O75643)	-0.229
SKA1 C29 (UniProt Q96BD8)	0.537

Target	log2 mean competition ratio
SKIL C268 (UniProt P12757)	-0.258
SPART C405 (UniProt Q8N0X7)	-0.565
SMC5 C726 (UniProt Q8IY18)	-0.616
SKIV2L C913 (UniProt Q15477)	-0.457
SLC26A2 C48 (UniProt P50443)	-0.0414
SMG5 C39 (UniProt Q9UPR3)	-0.272
SMG8 C555 (UniProt Q8ND04)	-0.188
SMAD9 C61 (UniProt O15198)	0.19
SKIV2L C579 (UniProt Q15477)	-0.00733
SLC4A1AP C730 (UniProt Q9BWU0)	0.293
SLC5A6 C628 (UniProt Q9Y289)	0.407
SMPD2 C304 (UniProt O60906)	-0.265
SMG7 C476 (UniProt Q92540)	-0.0415
SMYD2 C321 (UniProt Q9NRG4)	-0.124
SOD1 C147 (UniProt P00441)	0.505
SNX9 C427 (UniProt Q9Y5X1)	-0.0991
SLC30A1 C469 (UniProt Q9Y6M5)	-0.158
SMARCA5 C165 (UniProt O60264)	0.0472

Same assay, conditions: 200 µM; treatment time: 4 h; cell line lysate: HEK293T

Target	log2 mean competition ratio
SMG9 C380 (UniProt Q9H0W8)	0.242
SLC1A3 C375 (UniProt P43003)	0.339
SMUG1 C131 (UniProt Q53HV7)	0.451
SKA3 C290 (UniProt Q8IX90)	0.189
SMARCD2 C355 (UniProt Q92925)	-0.052
SMARCAD1 C575 (UniProt Q9H4L7)	-0.234
SOS1 C167 (UniProt Q07889)	-0.104
SMARCA2 C91 (UniProt P51531)	0.38
SMARCAD1 C741 (UniProt Q9H4L7)	-0.0913
SMYD4 C380 (UniProt Q8IYR2)	0.0436
SLC2A4RG C322	0.256
SLC1A1 C343	0.151
SMG8 C861 (UniProt Q8ND04)	0.0727
SNAP23 C112 (UniProt O00161)	0.355
SKA3 C215 (UniProt Q8IX90)	0.0626
SMAD2 C380 (UniProt Q15796)	-0.0141
SLC6A11 C80	0.338
SNRNP200 C428 (UniProt O75643)	-0.054
SKA1 C29 (UniProt Q96BD8)	0.355

Target	log2 mean competition ratio
SKIL C268 (UniProt P12757)	0.0203
SPART C405 (UniProt Q8N0X7)	-0.46
SMC5 C726 (UniProt Q8IY18)	-0.339
SKIV2L C913 (UniProt Q15477)	0.0118
SLC26A2 C48 (UniProt P50443)	-0.159
SMG5 C39 (UniProt Q9UPR3)	-0.0812
SMG8 C555 (UniProt Q8ND04)	-0.0118
SMAD9 C61 (UniProt O15198)	0.0649
SKIV2L C579 (UniProt Q15477)	0.03
SLC4A1AP C730 (UniProt Q9BWU0)	0.173
SLC5A6 C628 (UniProt Q9Y289)	-0.0651
SMPD2 C304 (UniProt O60906)	0.0323
SMG7 C476 (UniProt Q92540)	0.0421
SMYD2 C321 (UniProt Q9NRG4)	0.176
SOD1 C147 (UniProt P00441)	0.163
SNX9 C427 (UniProt Q9Y5X1)	-0.121
SLC30A1 C469 (UniProt Q9Y6M5)	0.403
SMARCA5 C165 (UniProt O60264)	0.133
